Binding data for one substance are collected here from PMC6999089.

Protein sequences, listed by entry. Tags and fused reporters are not part of them. Residues count along the entry.
UniProt Q7JQ32, residues 20-1525: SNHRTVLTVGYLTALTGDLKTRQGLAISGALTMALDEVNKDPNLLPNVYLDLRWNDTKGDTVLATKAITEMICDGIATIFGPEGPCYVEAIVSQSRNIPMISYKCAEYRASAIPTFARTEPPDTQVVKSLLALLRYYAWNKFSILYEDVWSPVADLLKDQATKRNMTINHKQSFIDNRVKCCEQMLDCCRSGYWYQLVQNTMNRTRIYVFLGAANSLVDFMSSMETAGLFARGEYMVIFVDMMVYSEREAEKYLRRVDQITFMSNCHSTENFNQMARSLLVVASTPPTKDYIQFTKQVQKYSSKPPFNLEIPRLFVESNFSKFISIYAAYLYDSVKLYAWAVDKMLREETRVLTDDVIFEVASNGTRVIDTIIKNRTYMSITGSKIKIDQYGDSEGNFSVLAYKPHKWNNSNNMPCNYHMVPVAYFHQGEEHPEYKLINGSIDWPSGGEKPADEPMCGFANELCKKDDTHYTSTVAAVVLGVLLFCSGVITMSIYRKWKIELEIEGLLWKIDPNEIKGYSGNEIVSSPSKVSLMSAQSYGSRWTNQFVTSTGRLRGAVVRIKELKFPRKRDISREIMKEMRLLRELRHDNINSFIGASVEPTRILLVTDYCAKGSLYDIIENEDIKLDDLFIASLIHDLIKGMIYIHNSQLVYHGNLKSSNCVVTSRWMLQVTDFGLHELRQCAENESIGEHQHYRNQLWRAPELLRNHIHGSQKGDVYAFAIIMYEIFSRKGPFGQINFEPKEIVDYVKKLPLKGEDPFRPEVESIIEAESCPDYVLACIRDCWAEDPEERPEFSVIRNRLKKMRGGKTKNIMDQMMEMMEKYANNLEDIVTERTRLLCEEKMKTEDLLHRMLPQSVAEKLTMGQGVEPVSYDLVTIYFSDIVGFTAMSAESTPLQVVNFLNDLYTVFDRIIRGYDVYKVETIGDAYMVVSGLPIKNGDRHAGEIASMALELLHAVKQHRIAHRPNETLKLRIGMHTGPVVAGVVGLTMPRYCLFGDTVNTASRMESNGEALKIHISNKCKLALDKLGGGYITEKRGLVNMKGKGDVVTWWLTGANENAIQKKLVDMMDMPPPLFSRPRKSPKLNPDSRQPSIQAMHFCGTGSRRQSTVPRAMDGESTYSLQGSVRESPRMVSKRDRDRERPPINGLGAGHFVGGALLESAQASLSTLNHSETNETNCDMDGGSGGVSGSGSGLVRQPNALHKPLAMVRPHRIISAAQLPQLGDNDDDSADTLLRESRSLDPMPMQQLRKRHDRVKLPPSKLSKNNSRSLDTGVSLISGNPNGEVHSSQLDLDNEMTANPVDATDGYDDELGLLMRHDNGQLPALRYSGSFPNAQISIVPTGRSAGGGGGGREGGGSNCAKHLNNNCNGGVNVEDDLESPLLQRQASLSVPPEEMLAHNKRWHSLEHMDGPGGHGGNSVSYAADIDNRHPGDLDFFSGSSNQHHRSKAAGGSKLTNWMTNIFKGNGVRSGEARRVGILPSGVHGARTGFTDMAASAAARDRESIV
UniProt P08646: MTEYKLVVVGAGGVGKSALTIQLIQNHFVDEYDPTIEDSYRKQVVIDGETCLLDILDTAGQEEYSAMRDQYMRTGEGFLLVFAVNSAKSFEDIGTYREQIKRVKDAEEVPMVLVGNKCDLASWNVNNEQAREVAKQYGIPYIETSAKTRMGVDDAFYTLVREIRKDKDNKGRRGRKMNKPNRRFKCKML

Results are given in words; binding and its absence hold for the method and conditions named. Binding seen in cells or lysates may run through a third protein. Some binding calls cover weakened binding; strength is not graded here.

For the test, the target named is FLAG-tagged wild-type Gyc76C (Drosophila) (UniProt Q7JQ32). The test is described as follows: co-IP; S2 cells co-transfected with V5-Ras85D and FLAG-Gyc76C (WT or ΔKHD); lysis in 30 mM Tris pH 7.5, 150 mM NaCl, 1% CHAPS; IP with anti-FLAG M2 and Dynabeads M280 at 4°C; wash with 500 mM NaCl, 1% CHAPS; blot with anti-V5 and anti-FLAG.

For “V5-tagged Ras85D (from UniProt P08646 1-189)”, the binding result is given as “binds”.
